Earlier results as cited in article PMC5629133 (Drugs in R&D, 2017).

Tested on: human AGP variants
Settings: separate AGP variants; cited from earlier work

Structure (SMILES): CCN(CC)CC(=O)Nc1c(C)cccc1C [lignocaine]
- AGP variant to which the drug binds: to both variants
